The nature of this test: qHTS Assay for Lipid Storage Modulators in Drosophila S3 Cells.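 For cell number change: cells counted by Cell Tracker Red CMTPX staining in the red channel.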 As to conditions: BODIPY lipid droplet fluorescence, 18-24 h; for cell number change: measured here: cell count max response, cells fed with added oleic acid. In outline:
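Drosophila S3 cells loaded with oleic acid (400 uM, as added) and compounds at several concentrations; lipid droplets imaged by 488-nm laser-scanning cytometry, 500–530 nm intensity and object ratio to cell channel. Percent activity normalized to 20 uM Triacsin C.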
A general note: Quantitative high-throughput screening tests each substance at several concentrations.

The mark [1] stands for this setting: measured here: lipid fluorescence (Fed channel) AC50, cells fed with added oleic acid.
[2] abbreviates: measured here: cell number channel AC50, cells fed with added oleic acid.

The other results are listed elsewhere or left out. The main result of the screen is listed elsewhere. These columns were measured beside it and carry no call. Most of these compounds were active or inconclusive in the main read-out, so they are no random draw. Potencies come from curve fits of mixed quality, noted in brackets.

With `CCOC(=O)C1CCCN(C(=O)c2ccc3nc(-c4ccccc4)c(-c4ccccc4)nc3c2)C1` (stereo not drawn), the cell number change is -19.1%. Besides, under setting [1], the AC50 (in general, the midpoint of the concentration-response curve, whichever way the signal moves) was 6.51 µM [falling, single point].
On to `CCc1nc(-c2cc3ccc(C)cc3[nH]c2=O)no1`, for which the cell number change turned out to be 16.8%. Moreover, under setting [1], the AC50 is 29.1 µM [rising, partial curve].
Regarding `Cc1cc(NS(=O)(=O)c2ccc(NC(=O)COc3ccccc3[N+](=O)[O-])cc2)no1`, the cell number change was -13%. The AC50 under setting [2] is 7.31 µM [rising, single point].
Regarding `CC1Cc2ccccc2N1S(=O)(=O)c1cccc(C(=O)c2nccn2C)c1` (stereo not drawn), the cell number change was -5.97%. Further, under setting [1], the AC50 is 2.06 µM [rising, partial curve].
As for `COc1ccccc1CNC(=O)CCCc1cn(C)c2ccccc12`, under setting [2], the AC50 was 0.651 µM [rising, full curve, poor fit].
`CCN(CC(=O)Nc1c(F)cccc1F)C(=O)Cn1[nH]c(=O)c2ccccc2c1=O`: the cell number change turned out to be 23.4%. Moreover, the AC50 under setting [1] was 20.6 µM [rising, single point].
As to `Cc1ccc(-c2nc(C)sc2CC(=O)Nc2nnc(C)s2)cc1`, the cell number change is 37.1%.
Turning to `Cc1cc(OCC(=O)NCc2cccnc2)ccc1[N+](=O)[O-]`, the cell number change was determined as 10.4%.
On to `Cc1ccc(S(=O)(=O)c2nnn3c2nc(Nc2cccc(C)c2)c2ccccc23)cc1`, for which the cell number change is 21.1%. The AC50 under setting [1] is 11.6 µM [rising, partial curve].
For `CN(C)C(CNC(=O)CNC(=O)c1ccc2ccccc2c1)c1ccccc1` (stereo not drawn), the cell number change was -22.4%.
With `O=C(N/C(=C\c1cccc(Br)c1)C(=O)N1CCCCC1)c1ccco1`, the cell number change amounted to 25.8%.
In the case of `O=C(COC(=O)/C=C/c1cccc(C(F)(F)F)c1)NC(=O)NCc1ccccc1`, the cell number change was 30.1%. Moreover, the AC50 under setting [2] was 32.6 µM [rising, single point].
As for `COc1cc(C(=O)Oc2ccc3ccc(O)cc3c2)cc(OC)c1OC`, the cell number change is -23.9%. In addition, under setting [1], the AC50 was 29.1 µM [falling, single point].
Consider `COc1cccc(COC(=O)CSCC(=O)Nc2cccc(C)c2)c1OC`, for which the cell number change came to 5.09%. Besides, the AC50 under setting [1] is 1.46 µM [rising, partial curve].
On to `Cc1ccc(OCC(O)CNC(C)c2ccccc2)cc1C` (stereo not drawn), for which the cell number change came out at 49.6%. The AC50 under setting [2] was 29.1 µM [rising, single point]. The AC50 under setting [1] is 29.1 µM [rising, single point].
With `C=CCn1cc(C(=O)NCCN(CC)CC)c(=O)c2cc(S(=O)(=O)N3CCCCCC3)ccc21`, the cell number change was -7.63%. The AC50 under setting [1] was 3.26 µM [rising, single point].
Turning to `CCOc1ccccc1N1CC(C(=O)Nc2ccc3c(c2)OCCO3)CC1=O` (stereo not drawn), the cell number change was -0.729%.
In the case of `Cc1c(C(C)C[C@H](C)O)oc(=O)c2c1Oc1c(C)c(C(C)C[C@H](C)O)oc(=O)c1C2` (stereo partly drawn), the cell number change is -17.4%. Further, the AC50 under setting [2] is 0.164 µM [falling, full curve, poor fit]. Also, the AC50 under setting [1] was 0.116 µM [falling, full curve, poor fit].
In the case of `CC(=O)c1ccc(CCCCCCCCCC(=O)O)s1`, the cell number change is -1.66%.
In the case of `Cc1ccc(C(=O)N2NC(c3ccc(F)cc3)C3C(=O)N(c4ccc(C)cc4)C(=O)C32)cc1` (stereo not drawn), the cell number change is 30.5%. Besides, the concentration at half-maximal activity (AC50) under setting [2] is 29.1 µM [rising, single point].
On to `S=c1[nH]nc(COc2ccccc2)n1/N=C/c1cccc(Cl)c1Cl`, for which the cell number change was -6.94%.
For the molecule `Cc1cc(C)c(S(=O)(=O)N2CCCCC2CCNC(=O)C(=O)NCc2cccnc2)c(C)c1` (stereo not drawn), the cell number change amounted to 133%. For the same molecule, under setting [2], the AC50 is 18.4 µM [rising, single point]. The AC50 under setting [1] was 0.00517 µM [falling, full curve, poor fit].
Turning to `Cc1ccc(CNC(=O)CCS(=O)(=O)c2cc(Br)cc3c2N(C(=O)C2CC2)CC3)o1`, the cell number change is -27.3%. Moreover, the AC50 under setting [1] was 3.66 µM [falling, partial curve].
Consider `CSc1ncccc1C(=O)NCC1CCCCC1`, for which the concentration at half-maximal activity (AC50) under setting [1] was 20.6 µM [rising, single point].
As to `O=C(/C=C/c1ccc2c(c1)OCO2)N1CCCCC1`, the cell number change amounted to 6.67%. The AC50 under setting [1] was 4.61 µM [rising, full curve].
`Cn1c(-c2ccc3c(c2)OCO3)cnc1NCc1cccc(O)c1`: the cell number change came to 0.602%. For the same molecule, the AC50 under setting [1] is 0.092 µM [falling, full curve, poor fit].
Take `COc1ccc(CNC(=O)CN(Cc2ccc(Cl)cc2)C(=O)c2csnn2)cc1`: the cell number change is 6.84%. Under setting [1], the AC50 was 3.26 µM [rising, single point].
As for `c1cncc(-c2nc(-c3ccc4c(c3)OCO4)cs2)c1`, the AC50 runs as follows: under setting [2], 0.0146 µM [rising, full curve, poor fit]; under setting [1], 29.1 µM [rising, partial curve].
In the case of `O=C(CN1C(=O)c2ccccc2S1(=O)=O)NCc1cccnc1`, the cell number change was -26.9%. The half-maximal activity concentration (AC50) under setting [2] is 0.184 µM [falling, full curve, poor fit]. Moreover, under setting [1], the AC50 was 2.06 µM [falling, full curve].
Take `Cc1ccc(-n2nnnc2CS(=O)(=O)c2ccccc2)c(C)c1`: the cell number change came out at 16.8%. The AC50 under setting [1] was 2.59 µM [rising, single point].
Take `CC(=O)N(C(C)=O)N1C(=O)c2cccc3c(N4CCOCC4)ccc(c23)C1=O`: the cell number change was -26.3%. The half-maximal activity concentration (AC50) under setting [1] was 29.1 µM [falling, partial curve, poor fit].
In the case of `Cc1c(O)ccc(NC(=O)/C=C/c2ccccc2)c1C`, the cell number change turned out to be 9.81%. Further, the AC50 under setting [1] is 2.24 µM [falling, single point].
As to `Cc1nn(-c2ccc(F)cc2)c(Cl)c1/C=N/NC(=O)c1cccs1`, the cell number change was -45.1%. In addition, under setting [2], the AC50 is 14.6 µM [falling, partial curve]. Further, under setting [1], the AC50 was 13 µM [falling, partial curve].
In the case of `Cn1c(SCc2cccc(Br)c2)nnc1-c1ccccn1`, the cell number change was determined as 23.4%. Under setting [2], the AC50 was 6.51 µM [rising, single point]. For the same molecule, the AC50 under setting [1] was 3.66 µM [rising, single point].
As for `COc1ccc(-c2cc(C)no2)cc1S(=O)(=O)N1CCOc2ccc(C)cc21`, the cell number change stood at 61.1%. Further, under setting [2], the AC50 is 20.6 µM [rising, single point]. In addition, the AC50 under setting [1] was 3.26 µM [falling, single point].
Consider `COc1ccc(OCc2cccc(C(=O)Nc3cc(C)on3)c2)cc1`, for which the cell number change is 5.87%. Moreover, under setting [1], the AC50 is 0.00517 µM [rising, full curve, poor fit].
For the molecule `CCc1cccc(NC(=O)CSCc2nc3sc(C)c(C)c3c(=O)[nH]2)c1`, the cell number change was 2.51%. In addition, the AC50 under setting [1] was 16.4 µM [rising, single point].
As for `COc1cc(CC(=O)Nc2sc3c(c2C(N)=O)CCCC3)cc(OC)c1OC`, the cell number change came to 14.1%. For the same molecule, under setting [1], the concentration at half-maximal activity (AC50) is 16.4 µM [rising, partial curve].
With `COc1ccc(NC(=O)CN(C)C(=O)CCCc2c[nH]c3ccccc23)cc1`, the cell number change is -3.98%. Further, the AC50 under setting [1] was 18.4 µM [falling, single point].
`CCCC(=O)n1nc(-c2cccnc2)nc1N`: the cell number change is -19.4%. For the same molecule, under setting [1], the AC50 is 4.61 µM [falling, full curve, poor fit].
For `COc1cccc(-n2c(C)nnc2SCC(=O)Nc2ccccc2N2CCOCC2)c1`, the cell number change was 21.3%. For the same molecule, under setting [2], the AC50 is 0.731 µM [rising, full curve, poor fit]. Further, under setting [1], the concentration at half-maximal activity (AC50) is 0.0651 µM [rising, single point].
As to `O=C(O)CCn1cc(-c2ccc(Cl)cc2)nc1-c1ccncc1`, the cell number change was 28.3%. In addition, under setting [1], the AC50 is 0.731 µM [falling, single point].
For the molecule `CCn1c(O)c(N=NC(=O)CNc2ccc(C)cc2)c2ccccc21`, the cell number change is 14.9%. Further, the AC50 under setting [2] is 1.64 µM [rising, partial curve, poor fit]. Besides, the concentration at half-maximal activity (AC50) under setting [1] was 4.61 µM [rising, partial curve].
Turning to `CCOC(=O)Cc1csc(NC(=O)c2ccc(C)c(S(=O)(=O)N3CCOCC3)c2)n1`, the cell number change came out at 39.7%. Moreover, the AC50 under setting [2] was 32.6 µM [rising, single point]. In addition, the AC50 under setting [1] is 8.2 µM [rising, partial curve].
As for `S=c1nc(-c2ccccc2)[nH]c2ccccc12`, the AC50 under setting [1] is 3.66 µM [falling, single point].
For the molecule `COc1ccc(OC)c(-c2csc(N(Cc3ccco3)C(=O)c3cccs3)n2)c1`, the cell number change was -20.4%. The AC50 under setting [1] was 6.51 µM [falling, partial curve, poor fit].
With `Cc1cc(Cl)c2oc(C(=O)N3CCCCC3CCN3CCCC3=O)c(C)c2c1` (stereo not drawn), the cell number change is 3.24%. In addition, the AC50 under setting [1] was 29.1 µM [rising, single point].
Turning to `O=C(c1ccc(CS(=O)(=O)Cc2ccc(Cl)cc2)o1)N1CCCC1`, the cell number change is 18.6%. Moreover, the AC50 under setting [1] is 13 µM [rising, single point].
As for `COc1cc2oc3ccccc3c2cc1N(CC(=O)N(C)C)S(=O)(=O)c1ccccc1`, the cell number change was -13.3%. Also, the AC50 under setting [1] was 0.82 µM [rising, full curve].
For the molecule `Cc1cc(NC(=O)c2cccs2)ccc1NC(=O)Cc1ccccc1`, the cell number change is 31.4%. The AC50 under setting [2] was 1.16 µM [rising, full curve, poor fit]. Further, under setting [1], the AC50 was 1.3 µM [rising, full curve, poor fit].
For `CCc1ccc(OCc2ccc(C(=O)O)o2)cc1`, the cell number change amounted to 42.3%. For the same molecule, the half-maximal activity concentration (AC50) under setting [2] was 0.092 µM [rising, full curve, poor fit]. Moreover, under setting [1], the AC50 was 0.13 µM [rising, full curve, poor fit].
Take `CCC(=O)Nc1ccc(C(=O)CSc2nnc(-c3ccc(NS(=O)(=O)CC)cc3)o2)cc1OC`: the cell number change is -23.6%. Besides, under setting [1], the AC50 was 1.84 µM [falling, full curve, poor fit].
With `Cc1ccnc(SCC(=O)NC2CCCCCC2)n1`, the cell number change worked out at 0.276%. For the same molecule, the AC50 under setting [1] was 0.58 µM [falling, single point].
Consider `O=C(NCCc1ccc(OC(F)F)cc1)C1CC(=O)N(c2ccc3c(c2)OCCO3)C1` (stereo not drawn), for which the cell number change was -7.06%.
On to `CCOCCC(=O)Nc1cc(Cl)ccc1OC`, for which the cell number change stood at 74.9%. For the same molecule, the AC50 under setting [2] was 14.6 µM [rising, partial curve].
Consider `O=C1NC(c2ccncc2)Nc2ccccc21` (stereo not drawn), for which the cell number change is 3.26%.
Consider `COc1ccc(C2(C)NC(=O)N(CC(=O)Nc3ccc(Br)cc3F)C2=O)cc1OC` (stereo not drawn), for which the cell number change stood at 10.4%. Also, the concentration at half-maximal activity (AC50) under setting [1] is 0.58 µM [rising, single point].
With `Cc1cccc(NS(=O)(=O)c2ccc(C(C)(C)C)cc2)n1`, the cell number change turned out to be 10.6%. For the same molecule, the AC50 under setting [1] was 0.164 µM [falling, single point].
As to `Cc1ccc(NC(=O)COC(=O)Cc2c[nH]c3ccccc23)cc1F`, the cell number change was -64%. Besides, under setting [2], the AC50 is 29.1 µM [falling, single point].

Source of the values: PubChem BioAssay AID2685 (National Center for Advancing Translational Sciences (NCATS), 2010).
